PubChem BioAssay AID1159578 – Peter MacCallum Cancer Centre – 2015
In all, the deposit lists about 18,000 reagents; this is a part drawn at random. About 1,030 of them (5.7%) count as active. 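Inactive calls also include pools with fewer than 3300 nuclei, whose migration was not assessed.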 Raw values vary from plate to plate and are shown uncorrected.

Assay: 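Knock-downs that alter how fast lymphatic endothelial cells migrate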 (primary screen)
Cell system: human lymphatic endothelial cells
Reagent: siRNA pool against human genes, 40 nM
Timing: 48 h after transfection
Detection: 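Cells stained with dye and imaged after a scratch; covered wound area and nuclei counted, duplicates averaged, migration set against mock wells and turned into a robust z-score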
Reading the numbers: migration robust z-score: higher = faster migration into the scratch; migration relative to mock: higher = more scratch area covered than mock; nuclei per well: higher = more cells in the well
Rule for the call: 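Pools averaging fewer than 3300 nuclei are never called; remaining pools count as changed when migration robust z lies outside -2 to 2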
Calls: active = migration changed; inactive = no migration change, or too few cells

The first 2 records as a preview:
target,migration robust z-score,migration class with cell-count check,migration relative to mock,"nuclei per well, duplicate mean",activity call
IHH,-0.15,migration z between -2 and 2; enough cells,0.77,5834,inactive
FAM117A,0.82,migration z between -2 and 2; enough cells,1.09,4862,inactive

Main list, from the start:
target,migration robust z-score,migration class with cell-count check,migration relative to mock,"nuclei per well, duplicate mean",activity call
IHH,-0.15,migration z between -2 and 2; enough cells,0.77,5834,inactive
FAM117A,0.82,migration z between -2 and 2; enough cells,1.09,4862,inactive
COL22A1,0.17,migration z between -2 and 2; enough cells,0.93,5556,inactive
PLCE1,0.42,migration z between -2 and 2; enough cells,0.88,5194,inactive
GRIN2D,-0.16,migration z between -2 and 2; enough cells,0.77,5494,inactive
VHL,0.09,migration z between -2 and 2; enough cells,0.91,5675,inactive
KALRN,1.03,migration z between -2 and 2; enough cells,1.01,6180,inactive
CCDC82,-0.8,migration z between -2 and 2; enough cells,0.68,5574,inactive
TBC1D16,0.62,migration z between -2 and 2; enough cells,1.04,5800,inactive
RLN1,-0.1,migration z between -2 and 2; enough cells,0.86,5464,inactive
FAM162A,0.45,migration z between -2 and 2; enough cells,1.01,5268,inactive
RAP1B,1.14,migration z between -2 and 2; enough cells,1.02,6372,inactive
TNRC6B,0.38,migration z between -2 and 2; enough cells,0.98,5516,inactive
TANC1,-1.51,migration z between -2 and 2; enough cells,0.5,7207,inactive
SMIM11,0.8,migration z between -2 and 2; enough cells,1.09,7234,inactive
RGPD7 (retired record),-0.12,migration z between -2 and 2; enough cells,0.85,6820,inactive
IGFBP5,-0.64,migration z between -2 and 2; enough cells,0.72,5648,inactive
RNASE1,-0.55,migration z between -2 and 2; enough cells,0.7,5430,inactive
EPN1,-0.52,migration z between -2 and 2; enough cells,0.75,5699,inactive
OR4D11,-0.02,migration z between -2 and 2; enough cells,0.88,6399,inactive
NDUFB2,-0.21,migration z between -2 and 2; enough cells,0.76,5605,inactive
IER5L,0.54,migration z between -2 and 2; enough cells,1.02,5706,inactive
SCTR,-0.32,under 3300 nuclei; migration not judged,0.74,3130,inactive
HMBS,-0.02,migration z between -2 and 2; enough cells,0.8,5306,inactive
PAPOLB,0.57,migration z between -2 and 2; enough cells,0.92,5390,inactive
ZNF41,-1.62,migration z between -2 and 2; enough cells,0.46,3630,inactive
SLC1A5,-0.27,migration z between -2 and 2; enough cells,0.82,6556,inactive
LTN1,-0.03,migration z between -2 and 2; enough cells,0.8,5593,inactive
AKAP19,0.66,migration z between -2 and 2; enough cells,1.06,5866,inactive
TCEA3,-1.14,migration z between -2 and 2; enough cells,0.58,4395,inactive
PARP15,-1.19,migration z between -2 and 2; enough cells,0.58,6012,inactive
CCDC87,0.34,migration z between -2 and 2; enough cells,0.97,5782,inactive
MTNR1A,0.6,migration z between -2 and 2; enough cells,0.92,6241,inactive
INHBC,-0.19,migration z between -2 and 2; enough cells,0.84,6543,inactive
ITGA2B,-0.42,migration z between -2 and 2; enough cells,0.72,5076,inactive
PEX14,0.31,migration z between -2 and 2; enough cells,0.96,5735,inactive
APLF,-1.38,migration z between -2 and 2; enough cells,0.52,5554,inactive
CIDEC,-0.68,migration z between -2 and 2; enough cells,0.71,6530,inactive
SH2B3,0.78,migration z between -2 and 2; enough cells,1.08,5110,inactive
